“And” between values parts separate entries of the source, which are not always exact repeats. Equal values may be shown once. Where a name gives a salt, the structure may show the parent alone. ± gives the standard deviation of the averaged measurements. Some of the results follow. Repeats are few or missing, and single values can be far off.
Test system: RAW 264.7
Assay: HMGB1-induced TNF-alpha production relative to HMGB1-stimulated control; higher = more TNF-alpha secretion (less inhibition)
Conditions: stimulus: HMGB1 5 ug/ml, 18 h
[1] = compound concentration: 1 ug/ml

Structure (SMILES) | HMGB1-induced TNF-alpha production (compound concentration: 3 uM) | HMGB1-induced TNF-alpha production [1] [%]
Oc1c(Cl)cc(Cl)c(Cl)c1Cc1c(O)c(Cl)cc(Cl)c1Cl [Hexachlorophene] | 139% | 
Oc1c(Cl)cc(Cl)c(Cl)c1Cc1c(O)c(Cl)cc(Cl)c1Cl | 119 ± 52% | 
Cc1c(N(C)C)c(=O)n(-c2ccccc2)n1C [Amidopyrine] | 86.5% | 
Cc1c(N(C)C)c(=O)n(-c2ccccc2)n1C | 80.7% | 
CCCc1c(-c2ccc(O)cc2)nn(-c2ccc(O)cc2)c1-c1ccc(O)cc1 [1,3,5-tris(4-hydroxyphenyl)-4-propyl-1H-pyrazole] | 80.5% | 
NC(=O)c1ccc2[nH]ccc2c1 | 87.4% | 
CC(C(=O)O)c1ccc2c(c1)[nH]c1ccc(Cl)cc12 (centres undefined) | 80.4% | 
CC(C(=O)O)c1ccc2c(c1)[nH]c1ccc(Cl)cc12 (centres undefined) [Carprofen] | 102% | 
CCCCc1cc2ccccc2c(OCCN(C)C)n1 [Dimethisoquin hydrochloride] | 107% | 
C=CCc1cccc(/C=N/NC(=O)CN2CCN(Cc3ccccc3)CC2)c1O | 104% | 
Cc1cccc(C)c1NC(=O)C(C)N (centres undefined) [Tocainide hydrochloride] | 91.5 ± 15% | 
Cc1cccc(C)c1NC(=O)C(C)N (centres undefined) | 101% | 
O=C1c2c(O)cccc2C([C@@H]2O[C@H](CO)[C@@H](O)[C@H](O)[C@H]2O)c2cc(CO)cc(O)c21 (some centres undefined) | 95.5% | 
NC(=S)NCCC[C@H](N)C(=O)O [L-Thiocitrulline] |  | 79.6
CC[N+](CC)(CC)CCOc1ccc(/C=C/c2ccccc2)cc1 | 113% | 
Nc1nc2[nH]cnc2c(=S)[nH]1 | 112 ± 6.3% | 
C/C1=C2/[N-][C@H]([C@H](CC(N)=O)[C@@]2(C)CCC(=O)NC[C@@H](C)OP(=O)([O-])O[C@H]2[C@@H](O)[C@@H](n3cnc4cc(C)c(C)cc43)O[C@@H]2CO)[C@]2(C)N=C(/C(C)=C3N=C(/C=C4N=C1[C@@H](CCC(N)=O)C\4(C)C)[C@@H](CCC(N)=O)[C@]\3(C)CC(N)=O)[C@@H](CCC(N)=O)[C@]2(C)CC(N)=O.[CH2-][C@H]1O[C@H](n2cnc3c(N)ncnc32)[C@@H](O)[C@H]1O.[Co+3] | 68.5% | 
COc1cc(C[C@@H](CO)[C@H](CO)Cc2ccc(O)c(OC)c2)ccc1O | 97% | 
CN(C)C(=O)C(CCN1CCC(O)(c2ccc(Cl)cc2)CC1)(c1ccccc1)c1ccccc1 [Loperamide] | 72.9% | 

Structure (SMILES) | HMGB1-induced TNF-alpha production (compound concentration: 3 uM) | HMGB1-induced TNF-alpha production [1] [%]
CN(C)C(=O)C(CCN1CCC(O)(c2ccc(Cl)cc2)CC1)(c1ccccc1)c1ccccc1 | 67.5% | 
CN(C)C(=O)C(CCN1CCC(O)(c2ccc(Cl)cc2)CC1)(c1ccccc1)c1ccccc1 [Loperamide hydrochloride] | 76 ± 21% | 
O=c1ccc2cc(O)c(O)cc2o1 [Esculetin] |  | 81.4
O=c1c(O)c(-c2cccc(O)c2)oc2ccccc12 |  | 78.8
C[C@H](CCC(=O)O)[C@H]1CC[C@H]2[C@@H]3[C@H](O)C[C@@H]4C[C@H](O)CC[C@]4(C)[C@H]3C[C@H](O)[C@]12C [Cholic acid] |  | 78.1
O=C(OCC(O)CO)c1ccccc1Nc1ccnc2cc(Cl)ccc12 (centres undefined) | 77.7% | 
O=C(OCC(O)CO)c1ccccc1Nc1ccnc2cc(Cl)ccc12 (centres undefined) [Glafenine hydrochloride] | 60.2% | 
CC(C(=O)O)c1ccc(-c2ccccc2)c(F)c1 (centres undefined) [Flurbiprofen] | 105 ± 9.9% | 
CC(C(=O)O)c1ccc(-c2ccccc2)c(F)c1 (centres undefined) | 76.1% and 72.7% | 
Cc1cc(O)c2c(c1)C(=O)c1cccc(O)c1C2=O [Chrysophanic acid] |  | 65.3
NC(=O)c1cn(Cc2c(F)cccc2F)nn1 [Rufinamide] | 93.9% | 
NC(N)=NC(N)=Nc1cccc(Cl)c1 [1-(m-Chlorophenyl)-biguanide hydrochloride] | 79.6% | 
C[C@H]1O[C@@H](O[C@H]2[C@@H](O)C[C@H](O[C@H]3[C@@H](O)C[C@H](O[C@H]4CC[C@@]5(C)[C@H](CC[C@@H]6[C@@H]5C[C@@H](O)[C@]5(C)[C@@H](C7=CC(=O)OC7)CC[C@]65O)C4)O[C@@H]3C)O[C@@H]2C)C[C@H](O)[C@@H]1O [Digoxin] | 84.1% | 77.3
C[C@H]1O[C@@H](O[C@H]2[C@@H](O)C[C@H](O[C@H]3[C@@H](O)C[C@H](O[C@H]4CC[C@@]5(C)[C@H](CC[C@@H]6[C@@H]5C[C@@H](O)[C@]5(C)[C@@H](C7=CC(=O)OC7)CC[C@]65O)C4)O[C@@H]3C)O[C@@H]2C)C[C@H](O)[C@@H]1O | 78.2% | 
CN1CCN(C2=Nc3cc(F)ccc3Cc3ccccc32)CC1 [Fluperlapine] | 86 ± 20% | 
O=c1c(O)c(-c2ccc(O)cc2)oc2cc(O)ccc12 |  | 39.3
COc1cc([S+](C)[O-])ccc1-c1nc2cccnc2[nH]1 (centres undefined) | 76.6% | 
COc1cc([S+](C)[O-])ccc1-c1nc2cccnc2[nH]1 (centres undefined) [Sulmazole] | 84.2% | 
COc1ccc(-c2cc(=O)c3c(O)c(OC)c(O[C@@H]4O[C@H](CO[C@@H]5O[C@@H](C)[C@H](O)[C@@H](O)[C@H]5O)[C@@H](O)[C@H](O)[C@H]4O)cc3o2)cc1 [Pectolinarin] |  | 63.6

Part of the list above, set out differently.
Structure (SMILES),HMGB1-induced TNF-alpha production (compound concentration: 3 uM),HMGB1-induced TNF-alpha production [1] [%]
O=c1c(O)c(-c2cccc(O)c2)oc2ccccc12,,78.8
C[C@H](CCC(=O)O)[C@H]1CC[C@H]2[C@@H]3[C@H](O)C[C@@H]4C[C@H](O)CC[C@]4(C)[C@H]3C[C@H](O)[C@]12C [Cholic acid],,78.1

From the supplement of paper PMC3682954
